For this test, the system named is P388 leukemia ip, CD2F1 mice, survival T/C. Put plainly: NCI In Vivo Anticancer Drug Screen. Data for tumor model P388 Leukemia (intraperitoneal) in CD2F1 (CDF1) mice. The settings on record: T/C endpoint: median survival time, higher T/C = longer survival.
Where [1] appears, read: dose: 50.0 mg/kg/injection, schedule: Q01DX005 (ip), vehicle: Klucel (hydroxypropylcellulose) (HPC).
The mark [2] stands for this setting: dose: 100.0 mg/kg/injection, schedule: Q01DX005 (ip), vehicle: Klucel (hydroxypropylcellulose) (HPC).
Where [3] appears, read: dose: 200.0 mg/kg/injection, schedule: Q01DX005 (ip), vehicle: Klucel (hydroxypropylcellulose) (HPC).
Setting [4] is: dose: 50.0 mg/kg/injection, schedule: Q01DX005 (ip), vehicle: saline with Tween-80.
[5] abbreviates: dose: 100.0 mg/kg/injection, schedule: Q01DX005 (ip), vehicle: saline with Tween-80.
The mark [6] stands for this setting: dose: 200.0 mg/kg/injection, schedule: Q01DX005 (ip), vehicle: saline with Tween-80.
The mark [7] stands for this setting: dose: 60.0 mg/kg/injection, schedule: Q01DX005 (ip), vehicle: Klucel (hydroxypropylcellulose) (HPC).
Where [8] appears, read: dose: 120.0 mg/kg/injection, schedule: Q01DX005 (ip), vehicle: Klucel (hydroxypropylcellulose) (HPC).
The mark [9] stands for this setting: dose: 240.0 mg/kg/injection, schedule: Q01DX005 (ip), vehicle: Klucel (hydroxypropylcellulose) (HPC).
Where [10] appears, read: dose: 50.0 mg/kg/injection, schedule: Q01DX009 (ip), vehicle: saline.
[11] abbreviates: dose: 100.0 mg/kg/injection, schedule: Q01DX009 (ip), vehicle: saline.

The list is a part of this screen's results and no random one: it gathers tests that were run many times, whatever their T/C, doses with no T/C, and many T/C values between a quarter and a half above the control. Other doses and runs of a compound stand elsewhere. T/C gives the treated animals as a percentage of the vehicle group. Some doses have a count of surviving animals in place of a T/C: the source holds a T/C of zero for them, seemingly a mark for toxic or unscored doses. Some survivor counts are full or nearly so, which does not show that the dose was tolerated: the source hardly ever lists a survival T/C far under the control, and the zero likely stands for such cases as well. Counts of survivors are from the toxicity check (mostly the fifth day) where no day follows; animals may have died later. Schedule codes are those of the source, read here as Q, the interval in days (D) or hours (H), X, the number of doses. Some doses were run more than once; the results are listed from low to high. Counts like (3×) give the number of equal values in this list. Some structures stand for samples that the source files as different forms (salt, stereo form or complex); doses refer to the form tested. Where survival is the endpoint, the PubChem record calls one and a half times the control and up active, and a quarter to a half above the control has no call in these data; cut-offs in other NCI protocols can differ.

For the molecule `CN=C(NC)c1ccc(NC(=O)c2cc(OC)cc(C(=O)Nc3ccc(C(=NC)NC)cc3)c2)cc1`, the survivor count runs as follows: under setting [1], 0 of 6; under setting [2], 0 of 6; under setting [3], 0 of 6.
`COC(=O)C1(O)C(=O)NC2=C1C(=O)c1ccccc1C2=O` (stereo not drawn): the T/C under setting [4] was 138 % of control. Also, the survivor count under setting [4] is recorded as 3 of 6; the survivor count under setting [5] is given as 0 of 6, 1 of 6, 2 of 6; the survivor count under setting [6] is 0 of 6.
On to `COc1cc(/C=C/C(C)=N/NC(N)=S)cc(OC)c1OC`, for which the survivor count is on record as 0 of 6 under setting [7], 0 of 6 under setting [8] and 0 of 6 under setting [9].
For the molecule `O=C(Cn1nnc(N2CCCCC2)n1)N/N=C/c1ccccc1O`, the survivor count was 6 of 6 under setting [7] and 6 of 6 under setting [8].
With `COc1ccc(-c2cc(=O)c3cc(C)c(C)c(C#N)c3o2)cc1`, the survivor count by setting is: (dose: 30.0 mg/kg/injection, schedule: Q01DX005 (ip), vehicle: Klucel (hydroxypropylcellulose) (HPC)) 6 of 6; under setting [7], 6 of 6; under setting [8], 6 of 6; under setting [9], 6 of 6.
As for `COc1cccc(C(=O)OCCC(C)C)c1O`, under setting [10], the survivor count is reported as 5 of 6.
As for `COc1cc2c(c(OC)c1OC)-c1ccc(SC)c(=O)cc1[C@@H](NC(=O)CCl)CC2`, the T/C runs as follows: (dose: 0.05 mg/kg/injection, schedule: Q01DX009 (ip), vehicle: other) 132 % of control; (dose: 0.05 mg/kg/injection, schedule: Q01DX009 (ip), vehicle: water) 137 % of control; (dose: 0.1 mg/kg/injection, schedule: Q01DX009 (ip), vehicle: other) 125 % of control; (dose: 0.1 mg/kg/injection, schedule: Q01DX009 (ip), vehicle: water) 133 % of control; (dose: 0.2 mg/kg/injection, schedule: Q01DX009 (ip), vehicle: other) 132 % of control; (dose: 0.2 mg/kg/injection, schedule: Q01DX009 (ip), vehicle: water) 144 % of control. Also, where the note is “dose: 0.4 mg/kg/injection, schedule: Q01DX009 (ip), vehicle: other”, the T/C was 139 % of control. In addition, the survivor count (dose: 0.78 mg/kg/injection, schedule: Q01DX009 (ip), vehicle: other) was 2 of 6; the survivor count (dose: 0.8 mg/kg/injection, schedule: Q01DX009 (ip), vehicle: other) was 4 of 6; the survivor count (dose: 0.8 mg/kg/injection, schedule: Q01DX009 (ip), vehicle: water) is 5 of 6; the survivor count (dose: 1.56 mg/kg/injection, schedule: Q01DX009 (ip), vehicle: other) is 1 of 6; the survivor count (dose: 3.13 mg/kg/injection, schedule: Q01DX009 (ip), vehicle: other) is on record as 0 of 6; the survivor count (dose: 6.25 mg/kg/injection, schedule: Q01DX009 (ip), vehicle: other) is on record as 0 of 6. Besides, the survivor count (dose: 12.5 mg/kg/injection, schedule: Q01DX009 (ip), vehicle: other) is listed as 0 of 6; the survivor count (dose: 25.0 mg/kg/injection, schedule: Q01DX009 (ip), vehicle: other) is 0 of 6; the survivor count (dose: 50.0 mg/kg/injection, schedule: Q01DX009 (ip), vehicle: other) is 0 of 6; the survivor count (dose: 100.0 mg/kg/injection, schedule: Q01DX009 (ip), vehicle: other) is recorded as 0 of 6; the survivor count (dose: 200.0 mg/kg/injection, schedule: Q01DX009 (ip), vehicle: other) is listed as 0 of 6.
`COc1ccc(CC2c3cc(OC)c(OC)c(OC)c3CC[N+]2(C)C)cc1Oc1ccc(CC2c3cc4c(c(OC)c3CC[N+]2(C)C)OCO4)cc1` (stereo not drawn): the survivor count reads like this: (dose: 6.25 mg/kg/injection, schedule: Q04DX003 (ip), vehicle: saline with Tween-80) 0 of 6; (dose: 6.25 mg/kg/injection, schedule: Q04DX003 (ip), vehicle: saline) 3 of 6; (dose: 12.5 mg/kg/injection, schedule: Q04DX003 (ip), vehicle: saline with Tween-80) 0 of 6; (dose: 25.0 mg/kg/injection, schedule: Q04DX003 (ip), vehicle: saline with Tween-80) 0 of 6; (dose: 100.0 mg/kg/injection, schedule: Q04DX003 (ip), vehicle: saline with Tween-80) 0 of 6; (dose: 200.0 mg/kg/injection, schedule: Q04DX003 (ip), vehicle: saline with Tween-80) 0 of 6. For the same molecule, where the note is “dose: 400.0 mg/kg/injection, schedule: Q04DX003 (ip), vehicle: saline with Tween-80”, the survivor count was 0 of 6.
On to `N=C(N)SCCSC(=N)N`, for which the survivor count is listed as 5 of 6 (dose: 100.0 mg/kg/injection, schedule: Q01DX009 (ip), vehicle: saline sonified) and 0 of 6 (dose: 400.0 mg/kg/injection, schedule: Q04DX002 (ip), vehicle: saline).
Regarding `CCNC(=O)N(CC(N)=O)c1ncc([N+](=O)[O-])s1`, the T/C (dose: 25.0 mg/kg/injection, schedule: Q01DX001 (ip), vehicle: saline) was 132 % of control.
For the molecule `CCOP(=O)(OCC)C1CCCN2CCc3c([nH]c4ccccc34)C12` (stereo not drawn), the survivor count under setting [11] is reported as 5 of 6.
For `C=CCOc1cc2c(cc1C(C)(C)c1ccc(OC)cc1)OCO2`, the T/C (dose: 240.0 mg/kg/injection, schedule: Q01DX005 (ip), vehicle: saline with Tween-80) is 126 % of control.
Consider `Cn1c(CN(Cc2nc3ccccc3n2C)Cc2nc3ccccc3n2C)nc2ccccc21`, for which the T/C under setting [4] was 128 % of control. In addition, the survivor count under setting [5] was 5 of 6 (2×) and 6 of 6; the survivor count under setting [6] is listed as 0 of 6.
On to `COc1ccc2[nH]c3c(C)c4cc[n+](CCCCCCCC[n+]5ccc6c(C)c7[nH]c8ccc(OC)cc8c7c(C)c6c5)cc4c(C)c3c2c1`, for which the T/C is 126 % of control (dose: 1.56 mg/kg/injection, schedule: Q04DX003 (ip), vehicle: other); 126 % of control (dose: 3.13 mg/kg/injection, schedule: Q04DX003 (ip), vehicle: other); 126 % of control (dose: 6.25 mg/kg/injection, schedule: Q04DX003 (ip), vehicle: other); 132 % of control (dose: 12.5 mg/kg/injection, schedule: Q04DX003 (ip), vehicle: other).
For `CN1CCc2c1c1c(c3c4ccccc4n(C)c23)N(C)CC1`, the survivor count is 6 of 6 under setting [1], 6 of 6 under setting [2] and 6 of 6 under setting [3].
For the molecule `CCCCCCCCCCCCCCC[N+]1([O-])CCCCCC1`, the survivor count runs as follows: under setting [10], 6 of 6; under setting [11], 5 of 6; (dose: 200.0 mg/kg/injection, schedule: Q01DX009 (ip), vehicle: saline) 0 of 6.
For `CC(=O)C[n+]1ccccc1C`, under setting [6], the survivor count is listed as 3 of 5.
For the molecule `CCC/C=C/C=C/C(=O)OC1/C(=C/C(=O)OC)CC2CC(C(C)O)OC(=O)CC(O)CC3CC(OC(C)=O)C(C)(C)C(O)(CC4C/C(=C/C(=O)OC)CC(/C=C/C(C)(C)C1(O)O2)O4)O3` (stereo not drawn), the survivor count is, setting by setting: (dose: 0.31 mg/kg/injection, schedule: Q01DX009 (ip), vehicle: saline + alcohol) 0 of 4; (dose: 0.62 mg/kg/injection, schedule: Q01DX009 (ip), vehicle: saline + alcohol) 0 of 4; (dose: 1.25 mg/kg/injection, schedule: Q01DX009 (ip), vehicle: saline + alcohol) 0 of 4; (dose: 2.5 mg/kg/injection, schedule: Q01DX009 (ip), vehicle: saline + alcohol) 0 of 4; (dose: 5.0 mg/kg/injection, schedule: Q01DX009 (ip), vehicle: saline + alcohol) 0 of 4; (dose: 150.0 micrograms/kg/injection, schedule: Q01DX009 (ip), vehicle: saline + alcohol) 2 of 5. For the same molecule, the survivor count (dose: 300.0 micrograms/kg/injection, schedule: Q01DX009 (ip), vehicle: saline + alcohol) was 0 of 5.
